From PubChem BioAssay AID2124 (Sanford-Burnham Center for Chemical Genomics, 2009) come the findings set out here.

The list shows a part of the results.

The nature of the test: cell-permeable autofluorescent compounds in GFP channel, dose response, artefact control, imaging, high-content imaging (AID 2124).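 Also: cells exposed to compound for 48 hours before fixing.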 The note with it: cells, GFP-channel autofluorescence, at 10 µM.

As to `CP(=O)(Nc1cccc(Br)c1)Oc1ccccc1` (stereo unspecified), the cell count stood at 3060 cells.
